Experimental data as given in PMC5342437.
No constants are given. Whether binding was seen depends on the method and setting. Binding seen in cells or lysates may run through a third protein. Some results given as binding are weak or reduced against the parent protein; the word gives no strength.

Protein sequences, listed by entry. Tags and fused reporters are not part of them. Lines headed by an entry give the natural chain unless they say otherwise; changes in a name come on top. Residues count along the entry.
UniProt P16070, residues 21-742: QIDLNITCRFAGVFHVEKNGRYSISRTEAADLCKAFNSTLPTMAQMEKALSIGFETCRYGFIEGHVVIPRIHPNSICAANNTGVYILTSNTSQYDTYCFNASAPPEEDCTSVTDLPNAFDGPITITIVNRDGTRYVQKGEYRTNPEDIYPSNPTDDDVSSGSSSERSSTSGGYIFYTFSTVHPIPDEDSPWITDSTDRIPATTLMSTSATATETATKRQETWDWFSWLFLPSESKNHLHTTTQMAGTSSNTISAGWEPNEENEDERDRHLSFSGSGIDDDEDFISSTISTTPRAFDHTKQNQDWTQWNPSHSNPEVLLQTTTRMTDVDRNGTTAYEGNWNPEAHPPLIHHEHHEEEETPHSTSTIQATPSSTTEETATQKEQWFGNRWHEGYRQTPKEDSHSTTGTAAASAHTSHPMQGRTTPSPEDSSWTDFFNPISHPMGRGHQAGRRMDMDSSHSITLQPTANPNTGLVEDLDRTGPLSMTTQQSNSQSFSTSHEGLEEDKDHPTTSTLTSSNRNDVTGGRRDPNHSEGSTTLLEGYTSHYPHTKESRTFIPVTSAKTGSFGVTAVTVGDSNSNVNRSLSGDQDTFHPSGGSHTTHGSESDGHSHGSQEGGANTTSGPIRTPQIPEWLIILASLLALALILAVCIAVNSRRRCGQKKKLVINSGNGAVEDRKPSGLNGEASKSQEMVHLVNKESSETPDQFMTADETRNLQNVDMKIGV
UniProt P10451, residues 17-314: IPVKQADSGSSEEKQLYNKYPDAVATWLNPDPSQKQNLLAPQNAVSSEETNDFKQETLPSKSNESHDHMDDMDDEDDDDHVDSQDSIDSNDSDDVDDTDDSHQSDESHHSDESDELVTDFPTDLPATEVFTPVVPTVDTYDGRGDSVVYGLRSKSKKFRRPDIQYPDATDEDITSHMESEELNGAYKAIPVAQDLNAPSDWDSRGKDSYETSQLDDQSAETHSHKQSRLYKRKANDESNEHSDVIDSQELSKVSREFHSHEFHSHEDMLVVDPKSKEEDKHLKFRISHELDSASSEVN

Target: CD44 (human (endogenous in CL1-5)) (UniProt P16070)
Test: co-IP; anti-CD44 (Abcam ab157107) immunoprecipitation from RIPA lysate (1 mg protein) of CL1-5/OPN-a stable clone, protein G beads, 4°C; blots probed with anti-CD44 and anti-OPN (O17); compared with CL1-5/VC clone

binding: binds
Substance: OPN-a-Myc-His fusion protein (osteopontin splicing variant a) (from UniProt P10451-1 17-314) (ligand)
